In test [1] the target is T1, pDis-PTPδ WT(+/+) (human) (UniProt P23468).
T1 sequence: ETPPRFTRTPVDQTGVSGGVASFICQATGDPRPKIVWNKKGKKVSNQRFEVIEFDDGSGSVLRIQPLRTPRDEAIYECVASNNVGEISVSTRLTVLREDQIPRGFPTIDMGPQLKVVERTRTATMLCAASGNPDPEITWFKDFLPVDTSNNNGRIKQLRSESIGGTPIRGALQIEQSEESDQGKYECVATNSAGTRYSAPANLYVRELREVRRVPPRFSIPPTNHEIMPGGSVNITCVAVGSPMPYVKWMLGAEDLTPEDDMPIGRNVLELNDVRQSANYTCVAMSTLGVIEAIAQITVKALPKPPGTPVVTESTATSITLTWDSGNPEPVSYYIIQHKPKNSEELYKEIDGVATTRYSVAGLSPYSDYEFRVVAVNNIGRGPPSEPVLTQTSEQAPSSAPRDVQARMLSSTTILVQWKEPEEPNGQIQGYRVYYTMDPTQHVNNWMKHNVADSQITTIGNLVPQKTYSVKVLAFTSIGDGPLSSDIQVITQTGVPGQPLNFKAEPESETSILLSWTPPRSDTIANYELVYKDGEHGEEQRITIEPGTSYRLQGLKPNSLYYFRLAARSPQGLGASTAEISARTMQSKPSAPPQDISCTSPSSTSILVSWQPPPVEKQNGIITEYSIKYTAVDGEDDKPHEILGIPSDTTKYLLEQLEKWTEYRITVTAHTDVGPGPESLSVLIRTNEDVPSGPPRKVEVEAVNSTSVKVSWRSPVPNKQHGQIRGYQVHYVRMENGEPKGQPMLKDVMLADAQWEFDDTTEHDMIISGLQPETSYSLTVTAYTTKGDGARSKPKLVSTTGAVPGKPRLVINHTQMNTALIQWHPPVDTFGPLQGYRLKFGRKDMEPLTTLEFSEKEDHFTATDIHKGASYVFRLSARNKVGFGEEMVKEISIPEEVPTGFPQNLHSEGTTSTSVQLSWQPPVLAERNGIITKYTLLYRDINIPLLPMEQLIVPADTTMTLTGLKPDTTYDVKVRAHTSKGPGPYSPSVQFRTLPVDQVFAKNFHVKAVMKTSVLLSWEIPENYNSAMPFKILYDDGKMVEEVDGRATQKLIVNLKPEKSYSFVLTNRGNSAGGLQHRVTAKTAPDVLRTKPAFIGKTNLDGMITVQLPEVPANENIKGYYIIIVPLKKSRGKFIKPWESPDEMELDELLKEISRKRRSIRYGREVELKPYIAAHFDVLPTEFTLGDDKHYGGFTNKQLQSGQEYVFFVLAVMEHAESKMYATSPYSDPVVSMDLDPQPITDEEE
Nature of the test: cell adhesion (cell aggregation) assay; as the cell adhesion assay, pre-formed aggregates of L cells treated with 0.5 mg/ml heparan sulfate for a further 2 h.

Test [2] deals with T2, pDis-PTPδΔK(+/+) (human) (UniProt P23468).
T2 sequence: T1 sequence with K39A, K40A, K42A, K43A
The description is as above.

The target of test [3] is T1, pDis-PTPδ WT(+/+) (human). Put plainly: cell adhesion (cell aggregation) assay; L cells expressing EGFP and the postsynaptic partner (pDisplay) mixed with L cells expressing DsRed and the LAR-RPTP (pDisplay), rotated at room temperature for 2 h, aggregates imaged by confocal microscopy; without glycan or with 0.5 mg/ml chondroitin sulfate for a further 2 h.
Test [4] addresses T2, pDis-PTPδΔK(+/+) (human). The description is as above.
In test [5] the target is T3, human PTPδ Ig1-3(+/+) (human) (UniProt P23468).
T3 sequence: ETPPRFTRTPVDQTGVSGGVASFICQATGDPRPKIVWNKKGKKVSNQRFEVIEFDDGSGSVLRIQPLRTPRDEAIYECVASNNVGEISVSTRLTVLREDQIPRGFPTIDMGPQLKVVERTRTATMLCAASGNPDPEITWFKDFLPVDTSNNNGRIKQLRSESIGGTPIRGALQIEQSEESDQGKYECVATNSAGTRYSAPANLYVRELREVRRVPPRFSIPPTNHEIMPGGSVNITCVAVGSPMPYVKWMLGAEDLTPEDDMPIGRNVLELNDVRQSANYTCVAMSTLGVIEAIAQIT
Nature of the test: condition: only with a 2-fold molar excess of heparan sulfate; SEC; with heparan sulfate: pre-formed complex incubated with a 2-fold molar excess of HS at 4°C for 3 h, or LAR-RPTP Ig1-3 pre-incubated with a 2-fold molar excess of HS and then with the partner; Superdex 200 10/300 GL, 10 mM Tris-HCl pH 8.0, 50 mM NaCl; both purified.

Changes are numbered by the printed parent chain. Numbers in names are those of the source. Results are given in words; binding and its absence hold for the method and conditions named. Some binding calls cover weakened binding; strength is not graded here.

B1: pDis-IL1RAPL1 WT (receptor, UniProt Q9NZN1 27-349)
chain: SADGCTDWSIDIKKYQVLVGEPVRIKCALFYGYIRTNYSLAQSAGLSLMWYKSSGPGDFEEPIAFDGSRMSKEEDSIWFRPTLLQDSGLYACVIRNSTYCMKVSISLTVGENDTGLCYNSKMKYFEKAELSKSKEISCRDIEDFLLPTREPEILWYKECRTKTWRPSIVFKRDTLLIREVREDDIGNYTCELKYGGFVVRRTTELTVTAPLTDKPPKLLYPMESKLTIQETQLGDSANLTCRAFFGYSGDVSPLIYWMKGEKFIEDLDENRVWESDIRILKEHLGEQEVSISLIVDSVEEGDLGNYSCYVENGNGRRHASVLL
Take B1: the binding result in test [1] was “no binding (condition: with 0.5 mg/ml heparan sulfate)”; in the test with pDis-PTPδΔK(+/+) (human) [2] it was “binds”; in test [3] it was “binds”; with pDis-PTPδΔK(+/+) (human) [4], “binds”.

B2: human IL1RAPL1 Ig1-3 (domain or fragment)
chain: B1 chain
modifications: glycans (NAG2-BMA-MAN) attached to N138
notes: IL-1 receptor accessory protein-like 1 (IL1RAPL1), human, Ig-like domains 1-3 of the extracellular part; In the functional row the Fc-fused form (Fc not cleaved) was used; also called IL-1 receptor accessory protein-like 1; IL1RAPL1 Ig1-3-Fc / IL1RAPL1-Fc (Fc kept, in the clustering assays only); source: High Five insect cells (baculovirus), secreted, purified (IgG Sepharose or protein A …)
On to B2, for which, in test [5], the binding entry was “no binding”.

B3: pDis-IL1RAPL1 mutant (E87A/E137R/N138A/R342D/H344D) (receptor, UniProt Q9NZN1 27-349)
chain: B1 chain with E61A, E111R, N112A, R316D, H318D
With B3, the binding entry in test [3] is reported as “binds”.

For the origin of these results see paper PMC5645493, “LAR-RPTP Clustering Is Modulated by Competitive Binding between Synaptic Adhesion Partners and Heparan Sulfate” (Frontiers in Molecular Neuroscience, 2017).
